Measurements from PubChem BioAssay (NCATS).
The shares of active, inactive and inconclusive entries below differ from those in the screen. Potencies of inconclusive entries are doubtful fits and often do not repeat. The source made the active and inactive calls. The call rests on the fitted dose curve; in most records, active means well fitted curve in the direction sought with a large enough effect; inconclusive means small, poorly fitted or top-dose-only effect, or another doubt; inactive means no such curve, though single readings can be large; an effect the other way counts as inactive or inconclusive.
Potency means the concentration at half of the fitted maximal effect.

Experiment: qHTS of pediatric cancer cell lines to identify multiple opportunities for drug repurposing: Confirmatory screen for A673 cells (AID 1347110);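 further: cells exposed to compound for 48 h before the viability read; nearly all actives have a fitted effect of over 65% in size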
Details: A673 Ewing sarcoma cell viability; series mostly up to 45.9 µM
Procedure, shortened: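 qHTS titration format: primary MIPE 0.78 nM-46 µM (11 pts), NPC 0.59 nM-46 µM; confirmation 11 pts. 48 h, CTG luminescence.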
With `Clc1ccc2nsnc2c1NC1=NCCN1` the Potency was inconclusive: 32.9 µM [cytotoxic, single point].
For `CC[C@]1(O)C[C@@H]2CN(CCc3c([nH]c4ccccc34)[C@@](C(=O)OC)(c3cc4c(cc3OC)N(C=O)[C@@H]3C45CCN4CC=C[C@](CC)([C@H]45)[C@@H](OC(C)=O)[C@]3(O)C(=O)OC)C2)C1` (some centres not stated), the Potency was “inactive”.
With `CCC(C)SSc1ncc[nH]1` (configuration not stated) the Potency was inconclusive: 36.9 µM [cytotoxic, single point].
In the case of `COc1cccc(-c2cc(=O)c3ccccc3o2)c1N`, the Potency is reported as inconclusive: 18.5 µM [cytotoxic, partial curve].

Experiment: qHTS of pediatric cancer cell lines to identify multiple opportunities for drug repurposing: Confirmatory screen for SK-N-MC cells (AID 1347111);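 further: cells exposed to compound for 48 h before the readout; nearly all actives have a fitted effect of over 70% in size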
Details: SK-N-MC cell viability; series mostly up to 45.9 µM
Procedure, shortened: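 Seed 500-1,000 cells/well; rest 5 h at 37 degrees C. Pin-transfer compounds, 11-point titration. Incubate 48 h. Add CellTiter-Glo, 15 min RT, read luminescence.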
For `Clc1ccc2nsnc2c1NC1=NCCN1`, the Potency was “inactive”.
With `CC1(C)OC2=C(C(=O)c3ccccc3C2=O)[C@H](NCc2ccccc2)[C@H]1O` the Potency was active: 5.22 µM.
For `CC(=O)Oc1cc2c(s1)CCN(C(C(=O)C1CC1)c1ccccc1F)C2` (configuration not stated), the Potency was “inactive”.
In the case of `CC[C@]1(O)C[C@@H]2CN(CCc3c([nH]c4ccccc34)[C@@](C(=O)OC)(c3cc4c(cc3OC)N(C=O)[C@@H]3C45CCN4CC=C[C@](CC)([C@H]45)[C@@H](OC(C)=O)[C@]3(O)C(=O)OC)C2)C1` (some centres not stated), the Potency is reported as inconclusive: 9.27 µM [cytotoxic, full curve, poor fit].
In the case of `C=C1C(=CC=C2CCC[C@]3(C)[C@@H]([C@H](C)CCCC(C)(C)O)CC[C@@H]23)C[C@@H](O)C[C@@H]1O`, the Potency is reported as inconclusive: 29.3 µM [cytotoxic, single point].
With `CCC(C)SSc1ncc[nH]1` (configuration not stated) the Potency was active: 8.27 µM.
For `COc1cccc(-c2cc(=O)c3ccccc3o2)c1N`, the Potency was inconclusive: 36.9 µM [cytotoxic, single point].
In the case of `O=C(Nc1cc2cc[nH]c2cn1)c1ccccc1`, the Potency is reported as active: 2.61 µM.
